Reference: PubChem BioAssay AID1487 (National Center for Advancing Translational Sciences (NCATS), 2009)
Several values for one entry are separate records, joined by “and”; a condition that tells them apart may be missing. Identical values can stand only once. The list shows a part of the results. Shown are side measurements of this screen, not its main read-out; they come without a call. The list favours compounds with an active or inconclusive main result. Words in brackets tell the shape of the fitted curve; partial curves, single points and poor fits give uncertain potencies.

Experiment: qHTS Assay for Modulators of Lamin A Splicing
Settings: HeLa LMNA splicing GFP/RFP minigene ratio, 48 h
How it was run: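 S3 HeLa cells stably expressing lamin A-EGFP splicing minigene plus DsRed2, 600 cells/well, 48 h compound exposure at 37C. Laser-scanning cytometry; analysed as GFP (500-530 nm)/RFP (575-640 nm) total intensity ratio; 0.5% DMSO vehicle.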

[1] = measured here: GFP splicing reporter channel
[2] = measured here: RFP viability control channel

| SMILES | AC50 [1] | AC50 [2] |
| --- | --- | --- |
| O=[N+]([O-])c1ccc(Oc2cnc3ccccc3n2)cc1 | 35.5 µM [falling, single point] | 25.1 µM [falling, single point] |
| CC(C)NC[C@@H](O)COc1ccc(CCOCC2CC2)cc1 | 2.51 µM [falling, partial curve] | 3.55 µM [falling, partial curve, poor fit] |
| Cn1c(=O)n(C/C=C/c2ccccc2)c(=O)c2c1nc1n2CCN1c1ccccc1 |  | 3.55 µM [rising, partial curve] |
| COc1ccc(/C=C/C=C2\NC(=S)NC2=O)cc1 |  | 0.562 µM [rising, full curve, poor fit] |
| COc1ccc(C)cc1-n1nnnc1SCc1cc(=O)n2cc(C)ccc2n1 | 10 µM [rising, partial curve, poor fit] | 7.08 µM [rising, partial curve] |
| O=C(Nc1ccc(F)cc1F)c1ccc(-n2cccn2)c([N+](=O)[O-])c1 | 0.02 µM [falling, full curve, poor fit] |  |
| CCC(CC)COC(=O)C(C#N)c1nc2ccccc2nc1N1CCN(CC)CC1 (centres undefined) | 11.2 µM [rising, partial curve, poor fit] | 15.8 µM [rising, single point] |
| CCc1nnc(NC(=O)CSc2nc(-c3ccccc3)c(-c3ccccc3)o2)s1 |  | 5.01 µM [rising, single point] |
| O=C(Nn1c(SCc2cccc([N+](=O)[O-])c2)nc2ccccc2c1=O)c1ccccc1 |  | 28.2 µM [rising, single point] |
| COc1ccccc1-c1nc(NCCc2cnc[nH]2)c2ccccc2n1 | 12.6 µM [falling, partial curve] |  |
| O=C(C(Cc1ccccc1)n1cccc1)N1CCN(c2cccc(Cl)c2)CC1 (centres undefined) |  | 35.5 µM [rising, single point] |
| O=C(c1cccc(S(=O)(=O)Nc2ccccc2Cl)c1)N1CCN(C(=O)c2ccco2)CC1 |  | 4.47 µM [falling, partial curve] |
| CCCOc1ccc(C2=NNC(c3cccs3)=Nc3ccc(OC)cc32)cc1 | 20 µM [rising, single point] | 22.4 µM [rising, partial curve] |
| Cc1ccc(NC2=C/C(=N\S(=O)(=O)c3cccs3)c3ccccc3C2=O)c(C)c1 | 4.47 µM [falling, full curve] | 3.98 µM [falling, full curve] |
| O=C(Nc1ccc2c(c1)OCCO2)NC12CC3CC(CC(C3)C1)C2 | 35.5 µM [rising, single point] | 35.5 µM [rising, single point] |
| c1ccc(SCc2nc3ccccc3[nH]2)nc1 | 10 µM [rising, partial curve, poor fit] | 11.2 µM [rising, partial curve] |
| O=c1cc(-c2ccc(O)cc2)oc2cc(O)cc(O)c12 | 14.1 µM [falling, single point] and 12.6 µM [falling, partial curve] | 12.6 µM [falling, single point] and 11.2 µM [falling, partial curve] |
| COc1cccc(CNn2c(-c3cccc(C)c3)nc3ccccc3c2=O)c1O |  | 11.2 µM [rising, single point] |
| CN(C)S(=O)(=O)c1cccc(NC(=O)COc2nc3ccccc3nc2N2CCOCC2)c1 |  | 35.5 µM [rising, single point] |

| SMILES | AC50 [1] | AC50 [2] |
| --- | --- | --- |
| COc1cc(Cl)nn(-c2ccccc2)c1=O | 22.4 µM [falling, partial curve] | 11.2 µM [falling, partial curve, poor fit] |
| COc1cccc(-n2ccnc2SCC(=O)Nc2c(C)cc(C)cc2C)c1 | 12.6 µM [falling, partial curve, poor fit] | 0.178 µM [falling, full curve, poor fit] |
| Cc1cc(C)c(NC(=O)Cn2c(=O)c3cccn3c3ccccc32)c(C)c1 |  | 11.2 µM [rising, partial curve] |
| O=C(/C=C/c1cccc([N+](=O)[O-])c1)Nc1cccc(NC(=O)c2ccco2)c1 |  | 20 µM [rising, single point] |
| COC(c1ccccc1)c1nnc(CCC(=O)N2CCN(CCOc3ccccc3)CC2)o1 (centres undefined) | 0.708 µM [falling, single point] |  |
| CCOCCCNC(=O)c1ccc(-n2c(-c3ccccc3)cc3c2CCCC3)cc1 | 35.5 µM [falling, single point] |  |
| Cc1ccc2cccc(Oc3ncnc4scc(-c5ccccc5)c34)c2n1 |  | 11.2 µM [rising, single point] |
| CC(C)(C)C(=O)NC(=S)Nc1ccc(F)cc1 |  | 0.0631 µM [falling, full curve, poor fit] |
| CC(O)CNc1nc2sc3c(c2c(=O)n1CCc1ccccc1)CCCCC3 (centres undefined) |  | 8.91 µM [rising, partial curve, poor fit] |
| N=C(N)SCCc1cccc(CCSC(=N)N)c1 | 7.94 µM [rising, partial curve, poor fit] | 11.2 µM [rising, partial curve] |
| COc1ccccc1Oc1ccc(S(=O)(=O)Nc2cccnc2)cc1 | 4.47 µM [rising, partial curve] | 3.16 µM [rising, partial curve] |
| CC1CCN(CCc2nc3cc(NS(=O)(=O)c4ccc(F)cc4)ccc3n2C)CC1 |  | 12.6 µM [rising, single point] |
| O=C(CS(=O)(=O)c1cccc2nsnc12)Nc1ccccc1Cl | 0.0224 µM [falling, full curve, poor fit] |  |
| CN(C)c1ccc(N/C=C/C(=O)C(F)(F)F)cc1 |  | 0.00708 µM [rising, full curve, poor fit] |
| COc1ccc(CNC(=O)CSc2nnnn2Cc2ccccc2)cc1 | 20 µM [falling, partial curve, poor fit] | 0.00708 µM [falling, full curve, poor fit] |
| CC(NC(=O)COc1ccc(/C=N/NS(=O)(=O)c2ccccc2)cc1)c1ccccc1 (centres undefined) | 14.1 µM [rising, partial curve] | 12.6 µM [rising, partial curve] |
| Cc1cc(Cl)ccc1NC(=S)N1CCN(Cc2ccccc2)CC1 |  | 12.6 µM [rising, partial curve, poor fit] |
| NCCC(=O)NCCc1cnc[nH]1 |  | 1.58 µM [falling, full curve, poor fit] |
| O=C(/C=C/c1cccc(Cl)c1)Nc1ncccn1 |  | 20 µM [rising, single point] |

| SMILES | AC50 [1] | AC50 [2] |
| --- | --- | --- |
| COc1ccc(C)c2sc(NC(=O)C3=COCCO3)nc12 |  | 10 µM [rising, partial curve, poor fit] |
| COc1ccc(CCNC(=O)c2ccc(-c3ccc([N+](=O)[O-])cc3)o2)cc1OC |  | 11.2 µM [rising, partial curve] |
| COCCn1c(C)cc(C(=O)CSc2nc3ccccc3c(=O)n2C(C)COC)c1C (centres undefined) | 8.91 µM [falling, partial curve] |  |
| O=C(c1ccc(N2CCC3(CC2)OCCO3)c([N+](=O)[O-])c1)N1CCOCC1 | 0.708 µM [rising, full curve, poor fit] |  |
| Nc1c(-c2cccs2)cnn1-c1nc(-c2ccc(F)cc2)cs1 | 15.8 µM [falling, single point] | 12.6 µM [falling, partial curve] |
| Cc1ccc(Nc2nc3ccccc3s2)c(C)c1 |  | 12.6 µM [rising, partial curve] |
| CC(C)CCNC(=O)CN1C(=O)CSc2ccc(S(=O)(=O)N3CCC(C)CC3)cc21 | 0.1 µM [falling, full curve] |  |
| COc1ccc(CCNc2oc(Cc3ccccc3)nc2C#N)cc1OC |  | 20 µM [rising, single point] |
| Cc1cc(C)c(S(=O)(=O)c2ccccc2)c(OC(=O)c2c(F)cccc2F)n1 |  | 1 µM [rising, partial curve] |
| Cc1cc2cccc(C)c2nc1SCC(=O)NNC(=O)c1ccco1 | 0.158 µM [falling, full curve, poor fit] |  |
| Cc1ccc(OCCN2C(=O)c3ccccc3C2=O)c([N+](=O)[O-])c1 |  | 20 µM [rising, single point] |
| Cc1cc(NC(=O)COC(=O)C2COc3ccccc3O2)no1 (centres undefined) |  | 0.708 µM [falling, full curve, poor fit] |
| c1ccc2c(c1)oc1c(Nc3ccc(CN4CCOCC4)cc3)ncnc12 |  | 12.6 µM [rising, partial curve, poor fit] |
| COCCN(Cc1ccccc1)C(=S)Nc1ccc(OC(F)F)cc1 |  | 17.8 µM [rising, partial curve] |
| COc1ccc(OCC(=O)Nc2ccc3nc(C)sc3c2)cc1 |  | 0.398 µM [falling, full curve, poor fit] |
| Cc1ccc(NC(=O)CSc2nc(=O)n(Cc3cccnc3)c3c2CCC3)cc1F | 3.98 µM [falling, full curve, poor fit] |  |
| Cc1nn(C(=O)c2cccnc2)c(C)c1Sc1ccccc1 |  | 31.6 µM [rising, single point] |
| O=c1c(/C=C(\O)c2ccc(F)cc2)nc2ccccc2n1-c1ccccc1 | 35.5 µM [falling, single point] | 25.1 µM [falling, single point] |
| O=C(CCCc1nc(-c2ccccc2)no1)Nc1cccnc1 |  | 15.8 µM [rising, single point] |
